# From patent publication US12350266B2, “FGFR2 inhibitors for the treatment of cholangiocarcinoma” (Janssen Pharmaceutica NV, priority 2017, dated 2025)
# Tested on: advanced cholangiocarcinoma with FGFR alterations
compound,measurement,setting,value
"COc1cc(OC)cc(N(CCNC(C)C)c2ccc3ncc(-c4cnn(C)c4)nc3c2)c1 [erdafitinib, N-(3,5-dimethoxy-phenyl)-N′-(1-methylethyl)-N-[3-(1-methyl-1H-pyrazol-4-yl)quinoxalin-6-yl]ethane-1,2-diamine]",FGFR alterations of participants with confirmed or unconfirmed partial response,8 mg qd,"FGFR2-KIAA1598 and DTWD2-FGFR2 fusions, with ESR2-FGFR2 fusion, with FGFR2 C390>YS mutation and with FGFR2-MGEA5 fusion"
same,FGFR alterations of participants with stable disease,8 mg qd,"FGFR2-BICC1 fusion, with FGFR2 fusion with SBNO2 partner, with FGFR2 N549K mutation, and with FGFR2-KIAA1598 fusion"
same,clinical activity (conclusion),patients with FGFR-aberrant advanced cholangiocarcinoma,encouraging clinical activity
